From PubChem BioAssay AID248 (DTP/NCI, 2004)
The list does not hold the whole screen: it gathers tests that were run many times, whatever their T/C, doses with no T/C, and many T/C values between a quarter and a half above the control. Further doses and runs are listed elsewhere. T/C: endpoint of the treated group in % of that of the vehicle group. Some entries give survivors of the animals treated and no T/C: the source files T/C as zero there, which appears to mark a toxic dose or a test without result, not a measured value. Some doses without a T/C left all or most animals alive at the check, yet need not have been tolerated: the source hardly ever lists a survival T/C far under the control, and the zero likely stands for such cases as well. Survivors were counted at the toxicity check, usually on the fifth day, unless a day is given; later deaths do not show. Schedule codes are those of the source, read here as Q, the interval in days (D) or hours (H), X, the number of doses. Some entries were tested several times; the results are listed from low to high. Some schedules carry Z or #; the key to these is not given. For survival time, the PubChem record calls one and a half times the control and up active, and a quarter to a half above the control has no call in these data; cut-offs in other NCI protocols can differ. Some T/C values carry the count of animals alive at the toxicity check (mostly the fifth day); where none is given, no animal had died by that day.

Test system: L1210 leukemia ip in BDF1 mice, survival T/C
Test: NCI In Vivo Anticancer Drug Screen. Data for tumor model L1210 Leukemia (intraperitoneal) in B6D2F1 (BDF1) mice
Conditions: T/C endpoint: mean survival time, higher T/C = longer survival
[1] = dose: 255.0 mg/kg/injection, schedule: Q04DX002 (ip), vehicle: alkali diluted with saline

S=c1nc[nH]c2nc[nH]c12
T/C (dose: 160.0 mg/kg/injection, schedule: Q01DX Z (oral), vehicle: other): 145 % of control
T/C (dose: 180.0 mg/kg/injection, schedule: Q01DX001 (ip), vehicle: saline): 149 % of control
T/C (dose: 180.0 mg/kg/injection, schedule: Q01DX005 (ip), vehicle: alkali diluted with saline): 148 % of control
T/C (dose: 180.0 mg/kg/injection, schedule: Q01DX005 (ip), vehicle: saline, evaluated on day 30): 97 and 100 % of control
T/C (dose: 180.0 mg/kg/injection, schedule: Q01DX005 (ip), vehicle: saline, evaluated on day 35): 108 % of control
survivor count (dose: 180.0 mg/kg/injection, schedule: Q01DX005 (ip), vehicle: saline): 10 of 10
T/C (dose: 180.0 mg/kg/injection, schedule: Q04DX003 (ip), vehicle: saline): 146 % of control
T/C (dose: 180.0 mg/kg/injection, schedule: Q08DX002 (ip), vehicle: saline): 137 % of control
T/C (dose: 200.0 mg/kg/injection, schedule: Q01DX001 (ip), vehicle: steroid suspending solution): 147 % of control
T/C (dose: 200.0 mg/kg/injection, schedule: Q02DX008 (ip), vehicle: alkali diluted with saline): 148 % of control
T/C (dose: 200.0 mg/kg/injection, schedule: Q## X004 (ip), vehicle: alkali diluted with saline): 146 % of control
T/C (dose: 202.0 mg/kg/injection, schedule: Q01DX001 (ip), vehicle: alkali diluted with saline): 142 % of control
T/C (dose: 202.0 mg/kg/injection, schedule: Q04DX003 (ip), vehicle: saline with Tween-80): 146 % of control
survivor count (dose: 205.0 mg/kg/injection, schedule: Q01DX009 (ip), vehicle: saline with Tween-80): 6 of 6
survivor count (dose: 240.0 mg/kg/injection, schedule: Q01DX009 (ip), vehicle: carboxymethylcellulose (CMC)): 10 of 10
survivor count (dose: 240.0 mg/kg/injection, schedule: Q01DX009 (ip), vehicle: other): 9 of 10
T/C (dose: 240.0 mg/kg/injection, schedule: Q04DX004 (ip), vehicle: alkali diluted with saline): 148 % of control
T/C (dose: 250.0 mg/kg/injection, schedule: Q01DX001 (ip), vehicle: Klucel (hydroxypropylcellulose) (HPC)): 126 % of control
T/C (dose: 250.0 mg/kg/injection, schedule: Q01DX009 (ip), vehicle: Klucel (hydroxypropylcellulose) (HPC)): 134 % of control
T/C (dose: 250.0 mg/kg/injection, schedule: Q04DX003 (ip), vehicle: Klucel (hydroxypropylcellulose) (HPC)): 146 % of control
T/C [1]: 130, 170, 180 % of control
survivor count [1]: 1 of 3
T/C (dose: 270.0 mg/kg/injection, schedule: Q04DX003 (ip), vehicle: saline): 145 % of control
T/C (dose: 280.0 mg/kg/injection, schedule: Q01DX001 (ip), vehicle: other): 127 % of control
T/C (dose: 300.0 mg/kg/injection, schedule: Q01DX001 (ip), vehicle: alkali diluted with saline): 137 and 141 % of control
survivor count (dose: 305.0 mg/kg/injection, schedule: Q01DX009 (ip), vehicle: saline with Tween-80): 6 of 6
T/C (dose: 320.0 mg/kg/injection, schedule: Q01DX006 (iv), vehicle: other): 130 % of control
survivor count (dose: 320.0 mg/kg/injection, schedule: Q01DX009 (ip), vehicle: saline with Tween-80): 5 of 6 and 6 of 6
survivor count (dose: 320.0 mg/kg/injection, schedule: Q01DX009 (oral), vehicle: saline with Tween-80): 6 of 6
survivor count (dose: 320.0 mg/kg/injection, schedule: Q01DX Z (im), vehicle: other): 6 of 6
survivor count (dose: 320.0 mg/kg/injection, schedule: Q01DX Z (ip), vehicle: carboxymethylcellulose (CMC)): 6 of 6
survivor count (dose: 320.0 mg/kg/injection, schedule: Q01DX Z (ip), vehicle: other): 6 of 6
T/C (dose: 320.0 mg/kg/injection, schedule: Q01DX Z (oral), vehicle: other): 143 % of control
survivor count (dose: 320.0 mg/kg/injection, schedule: Q01DX Z (sc), vehicle: other): 6 of 6
T/C (dose: 360.0 mg/kg/injection, schedule: Q04DX004 (ip), vehicle: alkali diluted with saline): 126 % of control
T/C (dose: 400.0 mg/kg/injection, schedule: Q01DX001 (ip), vehicle: alkali diluted with saline): 147 % of control [8 of 9 alive]
T/C (dose: 400.0 mg/kg/injection, schedule: Q01DX001 (ip), vehicle: steroid suspending solution): 137 % of control
